Our source for the AC50 values is PubChem BioAssay AID445 (National Center for Advancing Translational Sciences (NCATS), 2006).

The nature of the assay: IkB Signaling. To be noted: ABC-DLBCL IkBa-CBG/CBR dual luciferase ratio (green luciferase fused to IkBa over red control in OCI-Ly3 lymphoma cells), 4 h. In short, it runs like this: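 Luminescence ratio of IκBα-fused green versus native red beetle luciferase in OCI-Ly3 cells, 4 h post-doxycycline with compound; red signal alone, scaled from basal (0%) to zero light (-100%), flagged nonspecific or cytotoxic effects.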
The mark [1] stands for this setting: measured here: control luc red channel unless noted.

This is one part of the list. Further columns of the screen follow, without active or inactive calls. Compounds called inactive in the main read-out are mostly missing here. The note in brackets gives the kind of curve behind each potency; many fits are weak.

As usually defined, the AC50 is the concentration giving half of the maximal activity seen.

Consider `CN1CCN(C(CNC(=O)C(=O)Nc2ccc(F)cc2F)c2ccc3c(c2)OCO3)CC1` (stereo not drawn), for which the concentration at half-maximal activity (AC50) under setting [1] is 10 µM [falling, partial curve]. Still for that read-out and setting: as for `COc1ccc2cc(CN(CC3COCCO3)S(=O)(=O)c3ccc(Cl)cc3)c(=O)[nH]c2c1` (stereo not drawn), the figure is 0.126 µM [rising, full curve, poor fit]; as for `CC(C)Oc1ccc(CNS(=O)(=O)c2cnc(N)nc2)cc1`, 0.501 µM [rising, full curve, poor fit]. Consider `O=C(CN1C(=O)C2(SCC(=O)N2c2ccccc2)c2ccccc21)NCc1ccccc1Cl` (stereo not drawn), for which the concentration at half-maximal activity (AC50) under setting [1] is 7.94 µM [falling, partial curve]. The same measure, in the same setting: as for `O=C(NC1CCCCC1)c1ccc2c(c1)N(Cc1ccccc1)C(=O)c1ccccc1S2`, the figure is 12.6 µM [falling, partial curve, poor fit]; as for `CCCCNc1nc(Oc2ccc(=O)n(C)n2)nc(N(C)C)n1`, 12.6 µM [falling, single point]. Still for that read-out and setting: as for `Cc1ccc(-c2nc(CS(=O)CC(=O)N3CCN(c4ccccc4)CC3)c(C)o2)cc1` (stereo not drawn), the figure is 31.6 µM [falling, partial curve]. Consider `CCN(CC)c1cc(C)c2cc(NC(=O)/C=C/c3ccc(C)cc3)ccc2n1`, for which the AC50 under setting [1] was 3.98 µM [falling, partial curve].

Turning to `O=[N+]([O-])c1cc(Cc2cc([N+](=O)[O-])c3cccnc3c2O)c(O)c2ncccc12`, the AC50 runs as follows: (measured here: IkB-luc green channel) 3.98 µM [rising, partial curve]; (measured here: control luc red channel) 3.98 µM [falling, single point]. In the case of `COc1ccc(Cl)cc1NC(=O)c1cc2c(s1)-c1ccccc1OC2`, the AC50 under setting [1] is 6.31 µM [falling, partial curve]. Turning to `CS(=O)(=O)N(CC(=O)NCCSc1ccccc1)c1cc(C(F)(F)F)ccc1Cl`, under setting [1], the AC50 is 39.8 µM [falling, single point]. The same measure, in the same setting: next, `COc1ccc(OC)c(NC(=O)CSc2cn(CC(=O)N3CCOCC3)c3ccccc23)c1`: 39.8 µM [falling, single point]; `CC(=O)Nc1ccc(S(=O)(=O)Nc2cccc(-c3nc4cc(C)ccc4o3)c2)cc1`: 10 µM [falling, partial curve]; `O=C(CSc1nc2c(cnn2-c2ccc(F)cc2)c(=O)[nH]1)Nc1ccc(Br)cc1`: 0.01 µM [falling, full curve, poor fit]. With `CC1CCN(C(=O)COC(=O)c2cc3ccccc3cc2O)CC1`, the AC50 under setting [1] is 31.6 µM [falling, single point]. For the compound `Cc1cccc(C)c1Nc1c(-c2ccc(Cl)s2)nc2ncccn12`, the AC50 under setting [1] was 25.1 µM [falling, single point]. For the compound `O=C(Nc1ccc(SC(F)F)cc1)c1cc(-c2ccc3c(c2)OCCO3)on1`, the AC50 under setting [1] was 0.631 µM [falling, full curve].
